{
  "source": "patent US20060160915A1",
  "about": "“Photocurable compositions” (priority 2003, published 2006)",
  "assay": "Solubility properties in acrylate monomers",
  "type": "physicochemical",
  "details": "0.2 g in 2.5 g DPGDA, room temperature",
  "protocol": "For determining the solubility properties in acrylate monomers, which are customarily used for the preparation of overprint varnishes and UV-curable inks, 0.2 g each of the compounds obtained according to Examples 1 and 2 is stirred into 2.5 g of the acrylate monomer in question. In dipropylene glycol diacrylate (DPGDA) both compounds have dissolved within a period of 15 minutes at room temperature. In ethoxylated trimethylolpropane triacrylate (TMP(3EO)TA) the compound according to Example 2 dissolves within a period of 10 minutes at 40° C., while the compound according to Example 1 dissolves after only 4 minutes' heating at 40° C.",
  "note": "Some results were stated once for a whole list of compounds, not compound by compound.",
  "data": [
    {"smiles": "Cc1cccc(C(=O)c2ccc(-c3ccccc3)cc2)c1", "note": "[Example 1, 3-methyl-4′-phenylbenzophenone]", "values": [
      {"measurement": "time to dissolve in dipropylene glycol diacrylate (DPGDA)", "result": "≤ 15", "unit": "min"}
    ]},
    {"smiles": "Cc1cc(C)c(C(=O)c2ccc(-c3ccccc3)cc2)c(C)c1", "note": "[Example 2, 2,4,6-trimethyl-4′-phenylbenzophenone]", "values": [
      {"measurement": "time to dissolve in dipropylene glycol diacrylate (DPGDA)", "result": "≤ 15", "unit": "min"}
    ]}
  ]
}
